PMC12221726
Results are given in words; binding and its absence hold for the method and conditions named. In cells and extracts the contact can be indirect. Some results given as binding are weak or reduced against the parent protein; the word gives no strength.

Protein sequences, listed by entry. Tags and fused reporters are not part of them.
UniProt P46937: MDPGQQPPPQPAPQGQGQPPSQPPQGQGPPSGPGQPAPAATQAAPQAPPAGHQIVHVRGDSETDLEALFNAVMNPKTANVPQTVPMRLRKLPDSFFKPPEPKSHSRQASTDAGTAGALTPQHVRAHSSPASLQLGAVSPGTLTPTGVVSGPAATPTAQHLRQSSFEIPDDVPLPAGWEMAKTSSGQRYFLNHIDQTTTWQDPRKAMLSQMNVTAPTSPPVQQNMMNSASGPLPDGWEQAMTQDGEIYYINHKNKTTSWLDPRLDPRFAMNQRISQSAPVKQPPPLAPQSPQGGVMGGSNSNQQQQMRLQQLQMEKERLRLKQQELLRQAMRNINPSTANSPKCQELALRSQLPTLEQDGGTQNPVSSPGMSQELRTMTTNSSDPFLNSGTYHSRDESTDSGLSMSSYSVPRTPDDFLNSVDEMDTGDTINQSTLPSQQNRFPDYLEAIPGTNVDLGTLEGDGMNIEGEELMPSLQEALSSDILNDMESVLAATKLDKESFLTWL
UniProt P31946: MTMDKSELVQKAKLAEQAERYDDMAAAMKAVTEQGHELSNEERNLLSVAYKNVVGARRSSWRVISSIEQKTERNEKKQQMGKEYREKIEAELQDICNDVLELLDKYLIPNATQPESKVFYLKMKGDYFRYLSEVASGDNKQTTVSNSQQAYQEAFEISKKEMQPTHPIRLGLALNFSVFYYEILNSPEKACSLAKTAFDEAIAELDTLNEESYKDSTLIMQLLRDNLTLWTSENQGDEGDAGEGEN

Experiments:
wt-YAP-FLAG = wt-YAP-FLAG (UniProt P46937); assay: co-IP; stable cells expressing wt-YAP-FLAG or mut-YAP-FLAG (cell type and precipitating antibody not told for this experiment); co-immunoprecipitation kit
[1] = biological target: Yes-associated protein (YAP) (human (endogenous in CR primary OCPM cells)) (UniProt P46937); assay: co-IP; co-immunoprecipitation kit, antibody covalently coupled to amine-reactive resin (YAP antibody beads are listed in the methods); lysate of CR primary cells; endogenous proteins

binding (wt-YAP-FLAG): binds | binding [1]: binds
Substance: YWHAB (14-3-3 beta/alpha) (from UniProt P31946 1-246)
